Counter-ions that a name gives are not always drawn. The list shows a part of the results. Hit calls seldom repeat between salt and free forms of one compound.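 In K562 cells expressing nanoluciferase-fused kinases, luminescence was recorded at 4 h intervals between 2 and 18 h, normalized as percent of control with DMSO at 100% and a positive control at 0%. A significant (2 sigma) signal drop marks a time point as decreased. The authors' rule for a hit is not shown and takes in more than the number of time points.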
What was measured:
Experiment in all cases: kinase-Nluc reporter destabilization hit call (1 = scored as downregulated) (binary); higher = compound decreases kinase abundance
Conditions in all cases: K562; 2-18 h
ABL1 = ABL1 (UniProt P00519)
AKT1 = AKT1 (UniProt P31749)
ALK = ALK (UniProt Q9UM73)
ARAF = ARAF (UniProt P10398)
AURKA = AURKA (UniProt O14965)
AURKB = AURKB (UniProt Q96GD4)
AURKC = AURKC (UniProt Q9UQB9)
BLK = BLK (UniProt P51451)
BMX = BMX (UniProt P51813)
BRAF = BRAF (UniProt P15056)
BRAF_V600E = test system: BRAF_V600E
BTK = BTK (UniProt Q06187)
CAMK2A = CAMK2A (UniProt Q9UQM7)
CAMK2G = CAMK2G (UniProt Q13555)
CDK10 = CDK10 (UniProt Q15131)
CDK2 = CDK2 (UniProt P24941)
CDK3 = CDK3 (UniProt Q00526)
CDK4 = CDK4 (UniProt P11802)
CDK5 = CDK5 (UniProt Q00535)
CDK6 = CDK6 (UniProt Q00534)

Chains of the proteins cited; added tags and fusions are not shown. Lines headed by an entry give the natural chain unless they say otherwise; changes in a name come on top.
UniProt Q9UM73: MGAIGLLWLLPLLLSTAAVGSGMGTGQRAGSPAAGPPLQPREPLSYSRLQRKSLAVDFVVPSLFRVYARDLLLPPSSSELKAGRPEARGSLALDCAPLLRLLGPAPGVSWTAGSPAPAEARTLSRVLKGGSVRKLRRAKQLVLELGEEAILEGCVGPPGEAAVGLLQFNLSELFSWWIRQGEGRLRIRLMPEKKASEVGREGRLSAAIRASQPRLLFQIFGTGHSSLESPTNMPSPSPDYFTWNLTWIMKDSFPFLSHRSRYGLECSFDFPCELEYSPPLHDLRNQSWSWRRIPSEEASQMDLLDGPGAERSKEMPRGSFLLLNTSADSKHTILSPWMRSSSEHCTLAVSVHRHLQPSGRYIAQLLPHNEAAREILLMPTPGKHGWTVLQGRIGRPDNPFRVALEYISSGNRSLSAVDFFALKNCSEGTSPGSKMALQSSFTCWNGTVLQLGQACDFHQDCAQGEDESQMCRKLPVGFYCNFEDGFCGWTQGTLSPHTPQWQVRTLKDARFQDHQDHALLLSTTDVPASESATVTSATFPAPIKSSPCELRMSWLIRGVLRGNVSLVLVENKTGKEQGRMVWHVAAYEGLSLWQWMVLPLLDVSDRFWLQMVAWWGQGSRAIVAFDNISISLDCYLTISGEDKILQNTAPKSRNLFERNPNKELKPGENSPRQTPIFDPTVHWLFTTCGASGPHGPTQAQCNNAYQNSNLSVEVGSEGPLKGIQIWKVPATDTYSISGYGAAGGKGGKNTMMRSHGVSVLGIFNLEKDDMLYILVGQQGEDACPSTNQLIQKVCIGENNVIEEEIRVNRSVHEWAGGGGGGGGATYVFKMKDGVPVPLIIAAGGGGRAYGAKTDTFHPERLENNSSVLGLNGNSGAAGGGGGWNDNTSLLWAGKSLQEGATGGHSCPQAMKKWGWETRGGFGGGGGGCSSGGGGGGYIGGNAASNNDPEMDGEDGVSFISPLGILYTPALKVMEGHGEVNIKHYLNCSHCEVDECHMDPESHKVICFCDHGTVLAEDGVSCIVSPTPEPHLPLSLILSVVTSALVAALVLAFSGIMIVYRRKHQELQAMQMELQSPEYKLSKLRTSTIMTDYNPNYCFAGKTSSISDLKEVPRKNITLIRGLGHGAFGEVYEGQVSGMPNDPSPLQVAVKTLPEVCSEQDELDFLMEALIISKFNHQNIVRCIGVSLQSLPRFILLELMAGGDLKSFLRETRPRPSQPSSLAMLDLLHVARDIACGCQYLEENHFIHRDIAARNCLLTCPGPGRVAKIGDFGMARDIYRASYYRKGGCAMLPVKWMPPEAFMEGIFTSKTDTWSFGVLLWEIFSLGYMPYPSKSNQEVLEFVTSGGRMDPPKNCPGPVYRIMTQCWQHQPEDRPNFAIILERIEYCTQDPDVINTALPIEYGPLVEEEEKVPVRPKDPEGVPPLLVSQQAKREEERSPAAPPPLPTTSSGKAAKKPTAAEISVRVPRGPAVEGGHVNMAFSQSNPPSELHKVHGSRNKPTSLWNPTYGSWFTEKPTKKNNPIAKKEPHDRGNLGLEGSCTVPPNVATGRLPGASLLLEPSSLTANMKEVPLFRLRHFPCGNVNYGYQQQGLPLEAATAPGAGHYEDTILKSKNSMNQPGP
UniProt P10398: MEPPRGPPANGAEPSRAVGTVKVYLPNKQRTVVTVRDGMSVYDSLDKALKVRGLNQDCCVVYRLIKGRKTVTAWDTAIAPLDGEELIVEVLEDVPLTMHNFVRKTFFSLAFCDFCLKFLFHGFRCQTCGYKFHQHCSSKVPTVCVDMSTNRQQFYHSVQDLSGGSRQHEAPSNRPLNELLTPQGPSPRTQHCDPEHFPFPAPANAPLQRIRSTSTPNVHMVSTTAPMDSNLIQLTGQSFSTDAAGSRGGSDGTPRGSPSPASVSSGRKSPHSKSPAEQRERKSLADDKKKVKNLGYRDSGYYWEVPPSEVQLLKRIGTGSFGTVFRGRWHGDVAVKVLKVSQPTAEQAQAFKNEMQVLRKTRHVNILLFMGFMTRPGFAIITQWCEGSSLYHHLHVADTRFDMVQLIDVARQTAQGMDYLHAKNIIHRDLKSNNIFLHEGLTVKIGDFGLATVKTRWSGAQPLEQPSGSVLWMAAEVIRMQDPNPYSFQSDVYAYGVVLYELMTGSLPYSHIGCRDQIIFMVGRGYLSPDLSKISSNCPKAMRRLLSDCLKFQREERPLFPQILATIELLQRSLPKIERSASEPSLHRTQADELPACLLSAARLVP
UniProt O14965: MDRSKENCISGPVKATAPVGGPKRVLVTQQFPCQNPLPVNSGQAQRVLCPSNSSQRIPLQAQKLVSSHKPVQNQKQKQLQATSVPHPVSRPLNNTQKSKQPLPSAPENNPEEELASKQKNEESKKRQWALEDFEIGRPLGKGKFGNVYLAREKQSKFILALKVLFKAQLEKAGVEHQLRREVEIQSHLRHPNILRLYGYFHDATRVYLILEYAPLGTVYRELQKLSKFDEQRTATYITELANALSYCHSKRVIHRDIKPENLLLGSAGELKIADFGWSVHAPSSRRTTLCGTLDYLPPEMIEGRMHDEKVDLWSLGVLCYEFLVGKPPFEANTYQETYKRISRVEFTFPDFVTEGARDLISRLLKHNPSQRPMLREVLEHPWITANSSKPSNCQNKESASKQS
UniProt Q96GD4, whole entry: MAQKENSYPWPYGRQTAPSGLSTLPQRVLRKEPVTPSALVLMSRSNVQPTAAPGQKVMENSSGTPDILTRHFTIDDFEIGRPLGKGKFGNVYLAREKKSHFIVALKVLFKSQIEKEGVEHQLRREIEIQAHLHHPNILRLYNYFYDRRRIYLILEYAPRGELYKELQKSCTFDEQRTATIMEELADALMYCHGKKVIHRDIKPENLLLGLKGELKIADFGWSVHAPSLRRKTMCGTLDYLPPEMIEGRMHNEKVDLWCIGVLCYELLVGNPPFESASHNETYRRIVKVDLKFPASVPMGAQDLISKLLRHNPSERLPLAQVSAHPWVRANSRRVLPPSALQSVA
UniProt P51451: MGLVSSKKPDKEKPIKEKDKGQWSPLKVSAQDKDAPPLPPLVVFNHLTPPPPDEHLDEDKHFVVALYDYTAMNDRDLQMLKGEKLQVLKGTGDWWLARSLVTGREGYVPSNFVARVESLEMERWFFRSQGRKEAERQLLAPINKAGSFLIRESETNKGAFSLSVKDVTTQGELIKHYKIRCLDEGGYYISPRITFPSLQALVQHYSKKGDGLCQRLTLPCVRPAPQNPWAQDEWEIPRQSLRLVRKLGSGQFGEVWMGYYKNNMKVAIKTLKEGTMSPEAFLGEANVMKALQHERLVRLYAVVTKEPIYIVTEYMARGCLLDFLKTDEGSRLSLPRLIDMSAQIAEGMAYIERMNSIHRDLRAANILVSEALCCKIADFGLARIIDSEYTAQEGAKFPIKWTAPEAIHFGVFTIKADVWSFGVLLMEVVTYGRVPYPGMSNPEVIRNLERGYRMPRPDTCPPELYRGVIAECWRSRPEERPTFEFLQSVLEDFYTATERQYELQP
UniProt P51813: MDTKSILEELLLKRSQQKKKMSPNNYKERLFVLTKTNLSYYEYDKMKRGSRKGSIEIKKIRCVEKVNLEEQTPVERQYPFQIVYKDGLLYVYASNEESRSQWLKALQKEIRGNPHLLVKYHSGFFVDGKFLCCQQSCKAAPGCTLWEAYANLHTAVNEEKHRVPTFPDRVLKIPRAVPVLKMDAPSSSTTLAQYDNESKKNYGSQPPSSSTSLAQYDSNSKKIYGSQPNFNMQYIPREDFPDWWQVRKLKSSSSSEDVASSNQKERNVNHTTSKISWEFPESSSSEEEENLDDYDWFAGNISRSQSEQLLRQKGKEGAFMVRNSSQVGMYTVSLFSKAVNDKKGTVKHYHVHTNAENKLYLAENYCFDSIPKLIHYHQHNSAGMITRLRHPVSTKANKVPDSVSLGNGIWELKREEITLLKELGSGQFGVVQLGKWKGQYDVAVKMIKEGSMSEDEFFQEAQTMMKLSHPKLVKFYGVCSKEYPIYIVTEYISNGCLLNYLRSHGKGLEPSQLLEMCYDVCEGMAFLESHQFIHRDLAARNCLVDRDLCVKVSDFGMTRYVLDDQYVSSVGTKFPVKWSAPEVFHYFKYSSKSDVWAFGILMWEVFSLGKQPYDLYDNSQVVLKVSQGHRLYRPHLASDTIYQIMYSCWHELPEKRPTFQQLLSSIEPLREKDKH
UniProt P15056, whole entry, looked up: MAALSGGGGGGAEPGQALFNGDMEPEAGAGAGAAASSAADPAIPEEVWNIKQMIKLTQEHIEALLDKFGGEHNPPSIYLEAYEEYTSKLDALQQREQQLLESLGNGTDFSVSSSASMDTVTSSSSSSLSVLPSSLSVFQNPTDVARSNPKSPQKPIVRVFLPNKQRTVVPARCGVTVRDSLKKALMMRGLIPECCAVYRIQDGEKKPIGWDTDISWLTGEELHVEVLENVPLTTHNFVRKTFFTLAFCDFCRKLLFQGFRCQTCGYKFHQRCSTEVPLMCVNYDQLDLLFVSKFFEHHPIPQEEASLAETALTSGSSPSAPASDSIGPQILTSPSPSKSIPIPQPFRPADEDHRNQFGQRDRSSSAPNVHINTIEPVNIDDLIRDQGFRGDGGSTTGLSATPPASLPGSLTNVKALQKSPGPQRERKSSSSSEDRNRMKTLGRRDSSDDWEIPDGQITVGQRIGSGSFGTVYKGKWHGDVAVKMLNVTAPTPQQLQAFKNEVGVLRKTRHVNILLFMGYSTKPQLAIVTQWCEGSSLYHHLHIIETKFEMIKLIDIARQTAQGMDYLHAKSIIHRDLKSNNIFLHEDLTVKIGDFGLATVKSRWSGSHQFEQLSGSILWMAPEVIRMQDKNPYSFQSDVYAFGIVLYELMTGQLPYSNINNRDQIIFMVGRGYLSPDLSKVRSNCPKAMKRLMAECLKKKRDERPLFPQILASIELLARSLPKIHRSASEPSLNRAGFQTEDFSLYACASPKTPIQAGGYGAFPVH
UniProt Q9UQM7, whole entry: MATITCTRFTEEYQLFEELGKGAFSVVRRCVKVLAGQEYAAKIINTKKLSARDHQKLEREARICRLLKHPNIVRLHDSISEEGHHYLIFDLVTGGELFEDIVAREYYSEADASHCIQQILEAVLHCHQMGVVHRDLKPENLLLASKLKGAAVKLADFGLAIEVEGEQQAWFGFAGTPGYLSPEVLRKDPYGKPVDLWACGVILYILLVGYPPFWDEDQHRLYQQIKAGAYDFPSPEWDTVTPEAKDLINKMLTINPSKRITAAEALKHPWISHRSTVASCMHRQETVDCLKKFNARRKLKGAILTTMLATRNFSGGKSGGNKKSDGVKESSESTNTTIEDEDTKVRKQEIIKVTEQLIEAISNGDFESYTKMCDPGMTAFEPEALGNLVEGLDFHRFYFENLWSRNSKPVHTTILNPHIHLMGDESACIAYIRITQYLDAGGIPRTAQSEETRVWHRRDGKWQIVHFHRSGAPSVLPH
UniProt Q15131: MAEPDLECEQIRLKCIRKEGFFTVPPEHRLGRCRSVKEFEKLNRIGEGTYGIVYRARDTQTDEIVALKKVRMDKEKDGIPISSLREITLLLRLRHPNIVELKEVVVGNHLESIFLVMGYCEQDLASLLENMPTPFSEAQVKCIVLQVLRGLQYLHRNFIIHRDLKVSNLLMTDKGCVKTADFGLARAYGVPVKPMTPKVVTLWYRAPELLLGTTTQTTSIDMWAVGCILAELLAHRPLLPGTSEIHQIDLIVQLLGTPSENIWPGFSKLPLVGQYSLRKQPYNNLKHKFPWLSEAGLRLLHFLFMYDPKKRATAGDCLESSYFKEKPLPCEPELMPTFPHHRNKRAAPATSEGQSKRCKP
UniProt P11802: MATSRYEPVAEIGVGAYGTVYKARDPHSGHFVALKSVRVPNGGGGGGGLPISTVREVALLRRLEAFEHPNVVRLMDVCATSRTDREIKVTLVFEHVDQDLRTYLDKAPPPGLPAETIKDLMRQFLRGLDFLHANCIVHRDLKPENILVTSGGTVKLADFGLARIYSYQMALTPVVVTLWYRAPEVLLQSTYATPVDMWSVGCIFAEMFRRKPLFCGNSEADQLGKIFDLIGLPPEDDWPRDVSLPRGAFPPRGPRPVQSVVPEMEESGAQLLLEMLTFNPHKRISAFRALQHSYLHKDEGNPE
UniProt Q00534, whole entry: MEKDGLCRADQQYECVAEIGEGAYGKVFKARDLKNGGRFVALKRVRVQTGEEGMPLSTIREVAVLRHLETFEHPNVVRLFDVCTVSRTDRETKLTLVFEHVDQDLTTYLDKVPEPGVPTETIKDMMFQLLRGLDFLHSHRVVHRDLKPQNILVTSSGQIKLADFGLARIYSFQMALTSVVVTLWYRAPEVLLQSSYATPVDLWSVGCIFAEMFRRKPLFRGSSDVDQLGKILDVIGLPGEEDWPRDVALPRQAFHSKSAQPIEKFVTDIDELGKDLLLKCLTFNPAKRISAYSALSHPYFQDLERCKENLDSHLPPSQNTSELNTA

Measured: kinase-Nluc reporter destabilization hit call

COc1ccc2c(c1OC)C(OC)N(C)c1c-2ccc2cc3c(cc12)OCO3 (configuration not stated) [Angoline] (10 µM)
inactive: ABL1 = 0 | AKT1 = 0 | ALK 0 | ARAF 0 | AURKA 0 | AURKB 0 | AURKC 0 | BLK 0 | BMX 0 | BRAF 0 | BRAF_V600E 0 | BTK 0 | CAMK2A 0 | CAMK2G 0 | CDK10 = 0 | CDK2 = 0 | CDK3 = 0 | CDK4 = 0 | CDK5 = 0 | CDK6 = 0

C[C@H]1CC[C@]2(NC1)O[C@H]1C[C@H]3[C@@H]4CC[C@H]5C[C@@H](O)CC[C@]5(C)[C@H]4CC[C@]3(C)[C@H]1[C@@H]2C [Tomatidine (hydrochloride)] (10 µM)
inactive: ABL1 = 0 | AKT1 = 0 | ALK 0 | ARAF 0 | AURKA 0 | AURKB 0 | AURKC 0 | BLK 0 | BMX 0 | BRAF 0 | BRAF_V600E 0 | BTK 0 | CAMK2A 0 | CAMK2G 0 | CDK10 = 0 | CDK2 = 0 | CDK3 = 0 | CDK4 = 0 | CDK5 = 0 | CDK6 = 0

Cc1[nH]ncc1-c1cc2nc([C@H]3CC4CCN3CC4)[nH]c(=O)c2s1 [(R)-Simurosertib] (10 µM)
inactive: ABL1 = 0 | AKT1 = 0 | ALK 0 | ARAF 0 | AURKA 0 | AURKB 0 | AURKC 0 | BLK 0 | BMX 0 | BRAF 0 | BRAF_V600E 0 | BTK 0 | CAMK2A 0 | CAMK2G 0 | CDK10 = 0 | CDK2 = 0 | CDK3 = 0 | CDK4 = 0 | CDK5 = 0 | CDK6 = 0

C=C[C@H]1CN2CC[C@]3(C(=O)Nc4ccccc43)[C@@H]2C[C@@H]1/C(=C\OC)C(=O)OC [Corynoxeine] (2 µM)
inactive: ABL1 = 0 | AKT1 = 0 | ALK 0 | ARAF 0 | AURKA 0 | AURKB 0 | AURKC 0 | BLK 0 | BMX 0 | BRAF 0 | BRAF_V600E 0 | BTK 0 | CAMK2A 0 | CAMK2G 0 | CDK10 = 0 | CDK2 = 0 | CDK3 = 0 | CDK4 = 0 | CDK5 = 0 | CDK6 = 0

O=C(O)c1nn(Cc2ccc(Cl)cc2Cl)c2ccccc12 [Lonidamine] (10 µM)
inactive: ABL1 = 0 | AKT1 = 0 | ALK 0 | ARAF 0 | AURKA 0 | AURKB 0 | AURKC 0 | BLK 0 | BMX 0 | BRAF 0 | BRAF_V600E 0 | BTK 0 | CAMK2A 0 | CAMK2G 0 | CDK10 = 0 | CDK2 = 0 | CDK3 = 0 | CDK4 = 0 | CDK5 = 0 | CDK6 = 0

O=C(/C=C/c1ccccc1)OC[C@H]1O[C@@H](O[C@@H]2OC=C[C@H]3[C@H](O)[C@@H]4O[C@]4(CO)[C@@H]23)[C@H](O)[C@@H](O)[C@@H]1O [Picroside I] (10 µM)
inactive: ABL1 = 0 | AKT1 = 0 | ALK 0 | ARAF 0 | AURKA 0 | AURKB 0 | AURKC 0 | BLK 0 | BMX 0 | BRAF 0 | BRAF_V600E 0 | BTK 0 | CAMK2A 0 | CAMK2G 0 | CDK10 = 0 | CDK2 = 0 | CDK3 = 0 | CDK4 = 0 | CDK5 = 0 | CDK6 = 0

O=[N+]([O-])/C=C/c1ccc2c(c1)OCO2 (2.5 µM)
inactive: ABL1 = 0 | AKT1 = 0 | ALK 0 | ARAF 0 | AURKA 0 | AURKB 0 | AURKC 0 | BLK 0 | BMX 0 | BRAF 0 | BRAF_V600E 0 | BTK 0 | CAMK2A 0 | CAMK2G 0 | CDK10 = 0 | CDK2 = 0 | CDK3 = 0 | CDK4 = 0 | CDK5 = 0 | CDK6 = 0

COc1cc2c(cc1F)C(c1ccccc1Cl)=Nc1c(n[nH]c1C)N2 (0.5 µM)
inactive: ABL1 = 0 | AKT1 = 0 | ALK 0 | ARAF 0 | AURKA 0 | AURKB 0 | AURKC 0 | BLK 0 | BMX 0 | BRAF 0 | BRAF_V600E 0 | CAMK2A 0 | CAMK2G 0 | CDK10 = 0 | CDK2 = 0 | CDK3 = 0 | CDK4 = 0 | CDK6 = 0

CC(=O)OC(C)(C)/C=C/C(=O)[C@](C)(O)[C@H]1[C@H](O)C[C@@]2(C)[C@@H]3CC=C4[C@@H](C=C(O)C(=O)C4(C)C)[C@]3(C)C(=O)C[C@]12C [Cucurbitacin E] (2.5 µM)
active: ABL1 = 1
inactive: AKT1 = 0 | ALK 0 | ARAF 0 | AURKA 0 | AURKB 0 | AURKC 0 | BLK 0 | BMX 0 | BRAF 0 | BRAF_V600E 0 | BTK 0 | CAMK2A 0 | CAMK2G 0 | CDK10 = 0 | CDK2 = 0 | CDK3 = 0 | CDK4 = 0 | CDK5 = 0 | CDK6 = 0

COc1ccc2c(c1)/C(=C/c1cnc[nH]1)C(=O)N2 (2.5 µM)
inactive: ABL1 = 0 | AKT1 = 0 | ALK 0 | ARAF 0 | AURKA 0 | AURKB 0 | AURKC 0 | BLK 0 | BMX 0 | BRAF 0 | BRAF_V600E 0 | BTK 0 | CAMK2A 0 | CAMK2G 0 | CDK10 = 0 | CDK3 = 0 | CDK4 = 0 | CDK5 = 0 | CDK6 = 0

C/C=C(/C)C(=O)O[C@H]1[C@@H]2[C@H](C)C(=O)O[C@@H]2C[C@@H](C)[C@@H]2C=CC(=O)[C@]21C [Brevilin A] (2.5 µM)
inactive: ABL1 = 0 | AKT1 = 0 | ALK 0 | ARAF 0 | AURKA 0 | AURKB 0 | AURKC 0 | BLK 0 | BMX 0 | BRAF 0 | BRAF_V600E 0 | BTK 0 | CAMK2A 0 | CAMK2G 0 | CDK10 = 0 | CDK2 = 0 | CDK3 = 0 | CDK4 = 0 | CDK5 = 0 | CDK6 = 0

CN(C)C(=O)c1ccc(Cn2c(C(=O)O)cc3c(Br)cc(Sc4ccc(Cl)c(Cl)c4)cc32)cc1 [Rheb inhibitor NR1] (10 µM)
inactive: ABL1 = 0 | AKT1 = 0 | ALK 0 | ARAF 0 | AURKA 0 | AURKB 0 | AURKC 0 | BLK 0 | BMX 0 | BRAF 0 | BRAF_V600E 0 | BTK 0 | CAMK2A 0 | CAMK2G 0 | CDK10 = 0 | CDK2 = 0 | CDK3 = 0 | CDK4 = 0 | CDK5 = 0 | CDK6 = 0

An excerpt from above in order of SMILES length, smallest number first.
O=[N+]([O-])/C=C/c1ccc2c(c1)OCO2 (2.5 µM)
inactive: ABL1 = 0 | AKT1 = 0 | ALK 0 | ARAF 0 | AURKA 0 | AURKB 0 | AURKC 0 | BLK 0 | BMX 0 | BRAF 0 | BRAF_V600E 0 | BTK 0 | CAMK2A 0 | CAMK2G 0 | CDK10 = 0 | CDK2 = 0 | CDK3 = 0 | CDK4 = 0 | CDK5 = 0 | CDK6 = 0

Cc1[nH]ncc1-c1cc2nc([C@H]3CC4CCN3CC4)[nH]c(=O)c2s1 [(R)-Simurosertib] (10 µM)
inactive: ABL1 = 0 | AKT1 = 0 | ALK 0 | ARAF 0 | AURKA 0 | AURKB 0 | AURKC 0 | BLK 0 | BMX 0 | BRAF 0 | BRAF_V600E 0 | BTK 0 | CAMK2A 0 | CAMK2G 0 | CDK10 = 0 | CDK2 = 0 | CDK3 = 0 | CDK4 = 0 | CDK5 = 0 | CDK6 = 0

CN(C)C(=O)c1ccc(Cn2c(C(=O)O)cc3c(Br)cc(Sc4ccc(Cl)c(Cl)c4)cc32)cc1 [Rheb inhibitor NR1] (10 µM)
inactive: ABL1 = 0 | AKT1 = 0 | ALK 0 | ARAF 0 | AURKA 0 | AURKB 0 | AURKC 0 | BLK 0 | BMX 0 | BRAF 0 | BRAF_V600E 0 | BTK 0 | CAMK2A 0 | CAMK2G 0 | CDK10 = 0 | CDK2 = 0 | CDK3 = 0 | CDK4 = 0 | CDK5 = 0 | CDK6 = 0

Next part:

CC(=O)O[C@H]1[C@H]2[C@@H](OC(=O)Cc3ccccc3)[C@@H](C)C[C@]2(OC(C)=O)C(=O)/C(C)=C/[C@@H]2[C@H](CC[C@@]13CO3)C2(C)C [Euphorbiasteroid] (10 µM)
inactive: ABL1 = 0 | AKT1 = 0 | ALK 0 | ARAF 0 | AURKA 0 | AURKB 0 | AURKC 0 | BLK 0 | BMX 0 | BRAF 0 | BRAF_V600E 0 | BTK 0 | CAMK2A 0 | CAMK2G 0 | CDK10 = 0 | CDK2 = 0 | CDK3 = 0 | CDK4 = 0 | CDK5 = 0 | CDK6 = 0

O=C1C=CC[C@@H]2[C@H]3CCCN4CCC[C@@H](CN12)[C@@H]34 [Sophocarpine (monohydrate)] (2.5 µM)
inactive: ABL1 = 0 | AKT1 = 0 | ALK 0 | ARAF 0 | AURKA 0 | AURKB 0 | AURKC 0 | BLK 0 | BMX 0 | BRAF 0 | BRAF_V600E 0 | BTK 0 | CAMK2A 0 | CAMK2G 0 | CDK10 = 0 | CDK2 = 0 | CDK3 = 0 | CDK4 = 0 | CDK5 = 0 | CDK6 = 0

O=c1cc(O)c2ccccc2o1 [4-Hydroxycoumarin] (10 µM)
inactive: ABL1 = 0 | AKT1 = 0 | ALK 0 | ARAF 0 | AURKA 0 | AURKB 0 | AURKC 0 | BLK 0 | BMX 0 | BRAF 0 | BRAF_V600E 0 | BTK 0 | CAMK2A 0 | CAMK2G 0 | CDK10 = 0 | CDK2 = 0 | CDK3 = 0 | CDK4 = 0 | CDK5 = 0 | CDK6 = 0
